PubChem BioAssay AID1259254, NCATS | 2017
Aim: 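Finding genes that stop cells copying their DNA twice in one cycle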 (primary screen). Cell system: human HCT116 colorectal cancer cells. Knock-down reagent: single siRNA against human genes. Time to read-out: 3 days. Read-out: 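Nuclei stained with Hoechst and imaged; cell-cycle phase assigned by DNA content; G2 share scaled per plate, non-targeting siRNA 0%, GMNN siRNA 100%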. Scale: G2 robust z-score and G2 cells, % of GMNN control: higher = more G2 cells, more excess DNA replication; raw share of cells in G2: higher = larger share of cells with G2 DNA content. Rule for the call: 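An siRNA counts as active if its G2 robust z-score lies at least 5 MADs above the screen median; here such calls match roughly 38% of GMNN control or more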.
The whole screen tested about 59,000 reagents; below is a random part of them. About 1,550 of them (2.6%) were called active. 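G2 share is only a proxy for re-replication; each gene was hit by three separate siRNAs, and active genes were retested.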 Raw values vary from plate to plate and are shown uncorrected. Unmarked entries are inactive. Reagents against one gene are numbered here. Not given: the amount of reagent.

| gene | reagent no. | G2 robust z-score | G2 cells, % of GMNN control | raw share of cells in G2 (%) |
| --- | --- | --- | --- | --- |
| ZNF365 | 1 | 2.89 | 23.3 | 14.1 |
| ZNF365 | 2 | 4.33 | 33.4 | 17.9 |
| ZNF365 | 3 | -0.225 | 1.38 | 3.69 |
| ALDOA | 1 | 2.08 | 17.6 | 11.3 |
| ALDOA | 2 | -1.16 | -5.18 | 2.95 |
| ALDOA | 3 | 0.238 | 4.64 | 5.72 |
| ARPC1A | 1 | -0.249 | 1.22 | 4.23 |
| ARPC1A | 2 | 0.384 | 5.67 | 8.71 |
| ARPC1A | 3 | 0.616 | 7.3 | 8.87 |
| MRPS30 | 1 | 0.786 | 8.5 | 8.31 |
| MRPS30 | 2 | -0.824 | -2.83 | 2.97 |
| MRPS30 | 3 | -0.858 | -3.07 | 2.03 |
| CHCHD10 | 1 | 1.65 | 14.6 | 10.8 |
| CHCHD10 | 2 | 2.65 | 21.6 | 11.7 |
| CHCHD10 | 3 | 0.832 | 8.82 | 7.02 |
| KLHL18 | 1 | -0.125 | 2.08 | 4.85 |
| KLHL18 | 2 | 1.73 | 15.1 | 9.04 |
| KLHL18 | 3 | 3.63 | 28.5 | 17.8 |
| LINC01144 | 1 | -0.304 | 0.829 | 4.11 |
| LINC01144 | 2 | -0.76 | -2.38 | 2.57 |
| LINC01144 | 3 | 1.11 | 10.8 | 9.27 |
| UBE2H | 1 | 1.86 | 16.1 | 12.4 |
| UBE2H | 2 | -1.01 | -4.16 | 3.11 |
| UBE2H | 3 | -1.23 | -5.66 | 2.15 |
| TMF1 | 1 | -0.644 | -1.57 | 4.44 |
| TMF1 | 2 | 1.66 | 14.7 | 9.71 |
| TMF1 | 3 | 0.303 | 5.1 | 5.15 |
| HHIP-AS1 | 1 | 2.2 | 18.4 | 10.7 |
| HHIP-AS1 | 2 | 2.44 | 20.2 | 10.7 |
| HHIP-AS1 | 3 | -0.511 | -0.629 | 2.84 |
| PTPRG | 1 | 0.139 | 3.95 | 6.08 |
| PTPRG | 2 | -0.697 | -1.93 | 3.72 |
| PTPRG | 3 | -0.873 | -3.17 | 2.54 |
| RBPMS2 | 1 | -1.1 | -4.8 | 2.53 |
| RBPMS2 | 2 | -1.41 | -6.98 | 2.24 |
| RBPMS2 | 3 | -0.149 | 1.92 | 6.73 |
| REXO2 | 1 | -0.841 | -2.95 | 3.02 |
| REXO2 | 2 | -1.19 | -5.42 | 3.7 |
| REXO2 | 3 | 0.278 | 4.92 | 5.82 |
| FAM91A3P | 1 | 0.75 | 8.24 | 6.32 |
| FAM91A3P | 2 | 0.528 | 6.68 | 6.49 |
| FAM91A3P | 3 | 3.52 | 27.7 | 12.3 |
| ZNF692 | 1 | 1.18 | 11.3 | 11.4 |
| ZNF692 | 2 | -0.991 | -4 | 3.01 |
| ZNF692 | 3 | -0.0641 | 2.52 | 5.38 |
| ZNF200 | 1 | -0.561 | -0.978 | 3.2 |
| ZNF200 | 2 | 1.88 | 16.2 | 13.2 |
| ZNF200 | 3 | 2.25 | 18.8 | 11.2 |
| PPIAP55 | 1 | -0.134 | 2.03 | 5 |
| PPIAP55 | 2 | 0.366 | 5.54 | 5.89 |
| PPIAP55 | 3 | -1.02 | -4.21 | 1.42 |
| OR4M2 | 1 | -0.486 | -0.453 | 3.62 |
| OR4M2 | 2 | -0.477 | -0.386 | 3.24 |
| OR4M2 | 3 | 0.199 | 4.36 | 6.51 |
| LOC644058 (retired record) | 1 | -0.527 | -0.738 | 2.93 |
| LOC644058 (retired record) | 2 | 0.358 | 5.49 | 5.73 |
| LOC644058 (retired record) | 3 | 1.25 | 11.8 | 7.51 |
| NKX2-2 | 1 | 0.0971 | 3.65 | 6.77 |
| NKX2-2 | 2 | -0.561 | -0.983 | 2.87 |
| NKX2-2 | 3 | 1.71 | 15 | 11.4 |
| TMEM132A | 1 | -0.101 | 2.26 | 4.41 |
| TMEM132A | 2 | -0.332 | 0.629 | 4.54 |
| TMEM132A | 3 | -0.255 | 1.17 | 3.58 |
| RNF8 | 1 | 0.038 | 3.23 | 6.57 |
| RNF8 | 2 | 1.38 | 12.6 | 8.91 |
| RNF8 | 3 | 0.102 | 3.69 | 4.65 |
| C4orf54 | 1 | 0.22 | 4.51 | 5.29 |
| C4orf54 | 2 | 0.583 | 7.07 | 5.78 |
| C4orf54 | 3 | 0.639 | 7.47 | 5.54 |
| ALX1 | 1 | 5.41 (active) | 41 | 22.9 |
| ALX1 | 2 | -0.467 | -0.32 | 4.37 |
| ALX1 | 3 | -0.792 | -2.61 | 3.29 |
| MRPS7 | 1 | -0.173 | 1.75 | 4.52 |
| MRPS7 | 2 | -0.489 | -0.471 | 4.37 |
| MRPS7 | 3 | 3.7 | 29 | 12.4 |
| MRPS26 | 1 | -0.874 | -3.18 | 3.19 |
| MRPS26 | 2 | 2.98 | 23.9 | 15.3 |
| MRPS26 | 3 | -0.868 | -3.14 | 1.87 |
| LOC730098 | 1 | -0.191 | 1.63 | 4.11 |
| LOC730098 | 2 | 0.208 | 4.43 | 5.41 |
| LOC730098 | 3 | -0.509 | -0.617 | 3.25 |
| LYRM9 | 1 | 0.706 | 7.93 | 6.44 |
| LYRM9 | 2 | -0.253 | 1.19 | 3.36 |
| LYRM9 | 3 | -0.281 | 0.99 | 3.08 |
| BICD2 | 1 | -1.1 | -4.76 | 1.63 |
| BICD2 | 2 | 1.25 | 11.8 | 8.83 |
| BICD2 | 3 | -0.245 | 1.25 | 4.48 |

In a second layout: entries from further up.
gene | reagent no. | G2 robust z-score | G2 cells, % of GMNN control | raw share of cells in G2 (%)
OR4M2 | 3 | 0.199 | 4.36 | 6.51
LOC644058 (retired record) | 1 | -0.527 | -0.738 | 2.93
LOC644058 (retired record) | 2 | 0.358 | 5.49 | 5.73
LOC644058 (retired record) | 3 | 1.25 | 11.8 | 7.51
NKX2-2 | 1 | 0.0971 | 3.65 | 6.77
NKX2-2 | 2 | -0.561 | -0.983 | 2.87
NKX2-2 | 3 | 1.71 | 15 | 11.4
TMEM132A | 1 | -0.101 | 2.26 | 4.41
TMEM132A | 2 | -0.332 | 0.629 | 4.54
